According to article PMC3765826:

How the values were obtained:
[1] = molecular target: T1, OsMPK3 (rice (Oryza sativa)) (UniProt Q10N20); experiment: two-hybrid; one to one, pGADT7 and pGBKT7 constructs co-transformed in yeast AH109; selected on DDO, interaction checked by growth on QDO (SD-trp-leu-ade-his) at 30°C
T1 sequence: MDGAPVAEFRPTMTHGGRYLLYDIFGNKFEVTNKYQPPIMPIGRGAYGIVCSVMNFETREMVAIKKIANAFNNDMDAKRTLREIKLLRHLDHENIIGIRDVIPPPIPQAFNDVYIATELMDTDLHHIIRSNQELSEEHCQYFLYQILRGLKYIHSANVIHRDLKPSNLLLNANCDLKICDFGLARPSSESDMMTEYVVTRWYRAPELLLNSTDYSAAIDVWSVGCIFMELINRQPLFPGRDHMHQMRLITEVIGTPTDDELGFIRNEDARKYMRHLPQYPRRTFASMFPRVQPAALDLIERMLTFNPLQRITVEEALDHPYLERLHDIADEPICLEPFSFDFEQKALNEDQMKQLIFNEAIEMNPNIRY

[2] = molecular target: OsMPK20-4 (rice (Oryza sativa)); experiment: as above
[3] = molecular target: OsMPK20-4 (rice (Oryza sativa)); experiment: two-hybrid; lacZ reporter: β-galactosidase activity of liquid cultures of AH109 with ONPG as substrate, absorbance at 420 nm
[4] = molecular target: OsMPK20-4-HA (rice (Oryza sativa)); experiment: co-IP; proteins from co-infiltrated Nicotiana tabacum leaves (48 h); IP with anti-HA antibody and Protein A Sepharose at 4°C, immunoblot with anti-c-Myc
[5] = molecular target: OsMPK20-4 tagged with CFP (rice (Oryza sativa)); experiment: FRET or BRET; FRET acceptor bleaching (FRET-AB), CFP and YFP fusions in transiently transformed tobacco leaves, confocal microscope (TCS SP5; Leica)

B1: OsMPK3 (protein, UniProt Q10N20 1-369)
chain: MDGAPVAEFRPTMTHGGRYLLYDIFGNKFEVTNKYQPPIMPIGRGAYGIVCSVMNFETREMVAIKKIANAFNNDMDAKRTLREIKLLRHLDHENIIGIRDVIPPPIPQAFNDVYIATELMDTDLHHIIRSNQELSEEHCQYFLYQILRGLKYIHSANVIHRDLKPSNLLLNANCDLKICDFGLARPSSESDMMTEYVVTRWYRAPELLLNSTDYSAAIDVWSVGCIFMELINRQPLFPGRDHMHQMRLITEVIGTPTDDELGFIRNEDARKYMRHLPQYPRRTFASMFPRVQPAALDLIERMLTFNPLQRITVEEALDHPYLERLHDIADEPICLEPFSFDFEQKALNEDQMKQLIFNEAIEMNPNIRY
- binding [2]: binds
- binding [3]: binds

B2: OsMPK3-MYC (protein, UniProt Q10N20 1-369)
chain: MDGAPVAEFRPTMTHGGRYLLYDIFGNKFEVTNKYQPPIMPIGRGAYGIVCSVMNFETREMVAIKKIANAFNNDMDAKRTLREIKLLRHLDHENIIGIRDVIPPPIPQAFNDVYIATELMDTDLHHIIRSNQELSEEHCQYFLYQILRGLKYIHSANVIHRDLKPSNLLLNANCDLKICDFGLARPSSESDMMTEYVVTRWYRAPELLLNSTDYSAAIDVWSVGCIFMELINRQPLFPGRDHMHQMRLITEVIGTPTDDELGFIRNEDARKYMRHLPQYPRRTFASMFPRVQPAALDLIERMLTFNPLQRITVEEALDHPYLERLHDIADEPICLEPFSFDFEQKALNEDQMKQLIFNEAIEMNPNIRY
- binding [4]: binds

B3: OsMPK3 tagged with YFP (protein, UniProt Q10N20 1-369)
chain: MDGAPVAEFRPTMTHGGRYLLYDIFGNKFEVTNKYQPPIMPIGRGAYGIVCSVMNFETREMVAIKKIANAFNNDMDAKRTLREIKLLRHLDHENIIGIRDVIPPPIPQAFNDVYIATELMDTDLHHIIRSNQELSEEHCQYFLYQILRGLKYIHSANVIHRDLKPSNLLLNANCDLKICDFGLARPSSESDMMTEYVVTRWYRAPELLLNSTDYSAAIDVWSVGCIFMELINRQPLFPGRDHMHQMRLITEVIGTPTDDELGFIRNEDARKYMRHLPQYPRRTFASMFPRVQPAALDLIERMLTFNPLQRITVEEALDHPYLERLHDIADEPICLEPFSFDFEQKALNEDQMKQLIFNEAIEMNPNIRY
- binding [5]: binds

Results, then the molecule that gave them:

- binding [1]: no binding
Molecule: OsMPK20-2 (rice (Oryza sativa))

- binding [1]: binds
Molecule: OsMPK20-4 (rice (Oryza sativa))

No constants are given. Whether binding was seen depends on the method and setting. A result given as binding can be weak or reduced; the word gives no strength. For part of these data: In cells and extracts the contact can be indirect. For part of these data: Tags and fused reporters may be left off the sequences shown. Each block holds one molecule with its values, some of them ahead of it.
